Measurements from publication PMC3320541.

Molecular target: HopZ2^C229A (Pseudomonas syringae)
Assay: two-hybrid; split-ubiquitin yeast two-hybrid screen (QIS-Seq): membrane-tethered LexA-VP16-Cub bait against the NubG Arabidopsis cDNA prey library in AP-4 yeast; interacting colonies by growth on SD-LeuTrpHis + 3-AT; prey inserts of ~2000 pooled colonies sequenced (Illumina); enrichment against luciferase bait and library

B1: Arabidopsis thaliana MLO2 (At1g11310), partial clone of the cDNA prey library (domain or fragment, UniProt Q9SXB6 281-573)
chain: QRSLEKDFKTVVEISPVIWFVAVLFLLTNSYGLRSYLWLPFIPLVVILIVGTKLEVIITKLGLRIQEKGDVVRGAPVVQPGDDLFWFGKPRFILFLIHLVLFTNAFQLAFFAWSTYEFNLNNCFHESTADVVIRLVVGAVVQILCSYVTLPLYALVTQMGSKMKPTVFNDRVATALKKWHHTAKNETKHGRHSGSNTPFSSRPTTPTHGSSPIHLLHNFNNRSVENYPSSPSPRYSGHGHHEHQFWDPESQHQEAETSTHHSLAHESSEPVLASVELPPIRTSKSLRDFSFKK
binding: binds

Results are given in words; binding and its absence hold for the method and conditions named. Binding can be weak; no strength is given.
